Measurements reported in PubChem BioAssay AID1053209 (Peter MacCallum Cancer Centre, 2014)
Aim: 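Gene losses that combine with doxorubicin to kill mouse bone cancer cells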 (follow-up of hits). System: mouse primary osteosarcoma cells. Knock-down reagent: single siRNA against mouse genes, 25 nM (text also states 40 nM). Timing: about 120 h (48 h before drug, then 72 h with drug). Treatment: doxorubicin 100 nM (about IC30-40), added 48 h after transfection, for 72 h. Measured: 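ATP-based luminescent viability, with or without doxorubicin, relative to non-targeting control NT1, mean of two replicates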. Reading the numbers: viability with doxorubicin, vs NT1: higher = more viable cells under doxorubicin; viability ratio, doxorubicin over no drug: higher = less sensitisation to doxorubicin; viability without drug, vs NT1: higher = more viable cells without drug. Active means: 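Counted as active (class LC dox) if viability falls to 0.7 of NT1 or below under doxorubicin but stays within 0.7 to 1.1 without drug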.
The whole screen tested about 1,580 reagents; shown is a part drawn at random. Over the whole deposit, 207 (13%) got an active call. 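Rows are single siRNAs; four siRNAs per gene were tested, a gene counting as confirmed only when at least two agree.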 A number with no mark means an inactive call. The numbers tell different reagents against one gene apart.

gene	reagent no.	combined effect class	viability with doxorubicin, vs NT1	viability ratio, doxorubicin over no drug	viability without drug, vs NT1
Eny2	1	normal viability with and without drug	0.96	1.08	0.89
Eny2	2	normal viability with and without drug	0.84	0.82	1.02
Eny2	3	low viability only with doxorubicin; normal without drug (active)	0.62	0.66	0.94
Eny2	4	normal viability with and without drug	1.03	1.07	0.96
Rdh19	1	normal viability with and without drug	0.92	0.97	0.95
Rdh19	2	normal viability with and without drug	0.9	0.85	1.06
Rdh19	3	low viability only with doxorubicin; normal without drug (active)	0.44	0.54	0.82
Rdh19	4	normal viability with and without drug	1.02	1.02	1
Rps16	1	low viability with and without drug	0.31	0.76	0.41
Rps16	2	low viability with and without drug	0.4	0.7	0.57
Rps16	3	low viability with and without drug	0.26	0.55	0.47
Rps16	4	normal viability with and without drug	0.8	0.89	0.9
Pcyox1	1	normal viability with and without drug	1.07	1.09	0.98
Pcyox1	2	normal viability with and without drug	1	1.03	0.97
Pcyox1	3	normal viability with and without drug	0.86	0.99	0.87
Pcyox1	4	normal viability with and without drug	0.87	0.93	0.94
Rnf122	1	normal viability with and without drug	0.97	1.03	0.94
Rnf122	2	high viability only without drug	1.02	0.89	1.15
Rnf122	3	normal viability with and without drug	0.73	0.76	0.96
Rnf122	4	normal viability with and without drug	0.93	0.97	0.96
Mrpl39	1	normal viability with and without drug	0.76	0.92	0.83
Mrpl39	2	normal viability with and without drug	0.92	0.91	1.01
Mrpl39	3	normal viability with and without drug	0.97	0.94	1.03
Mrpl39	4	low viability only with doxorubicin; normal without drug (active)	0.69	0.85	0.81

Active calls (from the list above):
gene	reagent no.	combined effect class	viability with doxorubicin, vs NT1	viability ratio, doxorubicin over no drug	viability without drug, vs NT1
Eny2	3	low viability only with doxorubicin; normal without drug (active)	0.62	0.66	0.94
Rdh19	3	low viability only with doxorubicin; normal without drug (active)	0.44	0.54	0.82
Mrpl39	4	low viability only with doxorubicin; normal without drug (active)	0.69	0.85	0.81

Continued.
gene	reagent no.	combined effect class	viability with doxorubicin, vs NT1	viability ratio, doxorubicin over no drug	viability without drug, vs NT1
Mrpl38	1	high viability only with doxorubicin	1.12	1.14	0.98
Mrpl38	2	normal viability with and without drug	1	0.98	1.02
Mrpl38	3	normal viability with and without drug	1	1.04	0.96
Mrpl38	4	normal viability with and without drug	1.08	1.09	0.99
Polr2c	1	low viability only with doxorubicin; normal without drug (active)	0.5	0.59	0.85
Polr2c	2	normal viability with and without drug	0.78	0.8	0.98
Polr2c	3	normal viability with and without drug	0.81	0.92	0.88
Polr2c	4	normal viability with and without drug	0.92	0.88	1.04
Alyref2	1	low viability with and without drug	0.16	0.59	0.27
Alyref2	2	normal viability with and without drug	0.93	1.08	0.86
Alyref2	3	low viability with and without drug	0.24	0.63	0.38
Alyref2	4	normal viability with and without drug	1	1.2	0.83
Psmc6	1	low viability with and without drug	0.2	0.67	0.3
Psmc6	2	low viability with and without drug	0.25	0.6	0.42
Psmc6	3	high viability only with doxorubicin	1.12	1.08	1.04
Psmc6	4	low viability with and without drug	0.15	0.44	0.34
